This is one part of the list.
Legend:
Assay in all cases: log2 fold change, soluble protein after heating vs DMSO (PISA); higher = thermal stabilisation; K562 lysate, 10 uM; active = over 0.2 and 3.5 SD of the protein, either way, in both replicates (recomputed)
[1] = compound: C1=CC=C(C=C1)[C@H](COC2=CC3=C(C=C2)NC(=O)N3)NC(=O)C4=CC=CN(C4=O)CC5=CC(=C(C=C5)F)F
Summary of the method: (§1)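 Following dounce homogenisation of K562 pellets in PBS pH 7.4 with 1 mM MgCl2, crude extract at 1 mg/mL protein was incubated for 30 min with 10 μM compound. Aliquots were then heated for 3 min over 48°C-58°C and pooled, NP-40 was added to 0.5% at 4°C, and soluble protein was recovered as the supernatant at 21,000xg for 90 min. Channel-sum-equalised TMTpro 16plex LC-MS/MS quantified this protein. Each value, from duplicates, is a log-two fold change in thermal stability relative to solvent controls.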

Chains of the proteins cited; added tags and fusions are not shown. Lines headed by an entry give the natural chain unless they say otherwise; changes in a name come on top.
UniProt Q13332: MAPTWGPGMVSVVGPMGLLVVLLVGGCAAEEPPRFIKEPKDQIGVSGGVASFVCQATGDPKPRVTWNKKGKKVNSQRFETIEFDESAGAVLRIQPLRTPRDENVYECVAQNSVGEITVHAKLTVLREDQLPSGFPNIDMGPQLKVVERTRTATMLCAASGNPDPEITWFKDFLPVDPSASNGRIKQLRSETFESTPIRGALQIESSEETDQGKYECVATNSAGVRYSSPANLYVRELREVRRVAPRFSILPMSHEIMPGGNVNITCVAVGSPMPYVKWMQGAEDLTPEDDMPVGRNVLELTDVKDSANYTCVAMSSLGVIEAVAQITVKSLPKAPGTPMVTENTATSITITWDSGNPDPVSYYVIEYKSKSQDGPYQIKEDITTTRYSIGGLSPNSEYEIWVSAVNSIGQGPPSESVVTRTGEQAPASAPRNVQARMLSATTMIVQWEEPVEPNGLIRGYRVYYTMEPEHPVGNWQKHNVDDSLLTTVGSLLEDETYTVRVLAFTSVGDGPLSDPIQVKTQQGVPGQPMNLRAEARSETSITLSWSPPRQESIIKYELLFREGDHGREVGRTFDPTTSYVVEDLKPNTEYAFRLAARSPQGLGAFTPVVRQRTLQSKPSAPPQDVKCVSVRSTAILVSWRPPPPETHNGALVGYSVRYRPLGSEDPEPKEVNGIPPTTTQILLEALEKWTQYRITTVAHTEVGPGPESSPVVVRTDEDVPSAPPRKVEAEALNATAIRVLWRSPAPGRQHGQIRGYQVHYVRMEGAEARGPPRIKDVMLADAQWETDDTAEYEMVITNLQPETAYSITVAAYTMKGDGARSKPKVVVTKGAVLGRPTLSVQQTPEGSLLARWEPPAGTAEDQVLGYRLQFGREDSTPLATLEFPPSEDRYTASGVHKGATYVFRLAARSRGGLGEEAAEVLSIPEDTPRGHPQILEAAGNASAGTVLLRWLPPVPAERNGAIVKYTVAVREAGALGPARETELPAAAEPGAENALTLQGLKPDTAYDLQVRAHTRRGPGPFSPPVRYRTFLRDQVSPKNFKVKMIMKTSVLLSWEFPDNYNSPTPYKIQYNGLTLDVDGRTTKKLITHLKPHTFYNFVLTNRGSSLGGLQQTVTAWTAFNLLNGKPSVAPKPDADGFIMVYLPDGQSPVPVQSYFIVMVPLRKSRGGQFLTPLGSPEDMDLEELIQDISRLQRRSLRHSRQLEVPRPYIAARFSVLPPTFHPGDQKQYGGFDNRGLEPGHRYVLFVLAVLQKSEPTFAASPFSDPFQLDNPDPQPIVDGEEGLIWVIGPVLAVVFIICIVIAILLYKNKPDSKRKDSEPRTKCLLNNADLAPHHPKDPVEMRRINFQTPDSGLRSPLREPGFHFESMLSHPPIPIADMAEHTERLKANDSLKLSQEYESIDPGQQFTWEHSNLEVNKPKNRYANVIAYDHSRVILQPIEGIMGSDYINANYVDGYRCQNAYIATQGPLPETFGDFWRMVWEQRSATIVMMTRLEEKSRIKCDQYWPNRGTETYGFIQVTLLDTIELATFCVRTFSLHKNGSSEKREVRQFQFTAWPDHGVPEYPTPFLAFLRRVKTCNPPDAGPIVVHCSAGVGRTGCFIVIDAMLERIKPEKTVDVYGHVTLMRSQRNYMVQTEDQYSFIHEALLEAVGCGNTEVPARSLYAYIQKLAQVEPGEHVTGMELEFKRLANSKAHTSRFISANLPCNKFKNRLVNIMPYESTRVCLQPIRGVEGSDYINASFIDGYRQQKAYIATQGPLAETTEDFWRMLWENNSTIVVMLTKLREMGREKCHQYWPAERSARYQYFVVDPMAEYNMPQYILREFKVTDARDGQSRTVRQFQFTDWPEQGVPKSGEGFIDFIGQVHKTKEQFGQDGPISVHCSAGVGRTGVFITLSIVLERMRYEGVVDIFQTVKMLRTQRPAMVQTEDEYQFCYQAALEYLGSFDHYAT
UniProt P18433: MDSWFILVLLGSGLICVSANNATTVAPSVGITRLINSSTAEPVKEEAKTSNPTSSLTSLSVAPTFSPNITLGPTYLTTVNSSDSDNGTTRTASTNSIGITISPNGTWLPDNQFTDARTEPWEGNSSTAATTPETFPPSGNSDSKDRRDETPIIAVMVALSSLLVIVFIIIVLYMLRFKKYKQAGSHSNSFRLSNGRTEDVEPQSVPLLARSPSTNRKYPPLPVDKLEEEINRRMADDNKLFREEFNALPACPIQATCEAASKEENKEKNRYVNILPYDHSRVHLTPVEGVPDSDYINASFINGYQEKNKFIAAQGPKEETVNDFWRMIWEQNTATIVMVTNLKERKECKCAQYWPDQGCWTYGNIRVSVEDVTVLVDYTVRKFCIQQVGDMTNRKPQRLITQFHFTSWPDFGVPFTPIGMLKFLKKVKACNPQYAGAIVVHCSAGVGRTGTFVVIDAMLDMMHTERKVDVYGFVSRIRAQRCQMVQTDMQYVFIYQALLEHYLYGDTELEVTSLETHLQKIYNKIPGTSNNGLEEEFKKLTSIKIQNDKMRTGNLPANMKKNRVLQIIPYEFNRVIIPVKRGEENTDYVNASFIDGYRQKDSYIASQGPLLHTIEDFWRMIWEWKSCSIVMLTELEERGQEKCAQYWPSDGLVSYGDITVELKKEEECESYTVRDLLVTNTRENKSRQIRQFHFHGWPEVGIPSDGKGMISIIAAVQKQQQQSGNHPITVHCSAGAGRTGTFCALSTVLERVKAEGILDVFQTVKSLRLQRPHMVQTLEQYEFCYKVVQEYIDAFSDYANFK
UniProt Q9BVG9: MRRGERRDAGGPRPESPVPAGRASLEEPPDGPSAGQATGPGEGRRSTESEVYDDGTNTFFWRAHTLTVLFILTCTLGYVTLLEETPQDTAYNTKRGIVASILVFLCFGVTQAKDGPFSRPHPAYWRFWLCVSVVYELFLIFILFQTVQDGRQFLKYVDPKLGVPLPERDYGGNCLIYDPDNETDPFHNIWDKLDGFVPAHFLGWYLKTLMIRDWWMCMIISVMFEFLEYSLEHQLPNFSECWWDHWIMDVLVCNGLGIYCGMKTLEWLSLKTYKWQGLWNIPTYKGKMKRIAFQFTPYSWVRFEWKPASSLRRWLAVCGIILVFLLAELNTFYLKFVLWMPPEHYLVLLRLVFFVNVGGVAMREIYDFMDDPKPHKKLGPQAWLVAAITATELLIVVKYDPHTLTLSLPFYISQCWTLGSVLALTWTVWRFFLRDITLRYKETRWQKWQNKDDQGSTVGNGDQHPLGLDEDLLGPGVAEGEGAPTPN
UniProt Q9UHX1: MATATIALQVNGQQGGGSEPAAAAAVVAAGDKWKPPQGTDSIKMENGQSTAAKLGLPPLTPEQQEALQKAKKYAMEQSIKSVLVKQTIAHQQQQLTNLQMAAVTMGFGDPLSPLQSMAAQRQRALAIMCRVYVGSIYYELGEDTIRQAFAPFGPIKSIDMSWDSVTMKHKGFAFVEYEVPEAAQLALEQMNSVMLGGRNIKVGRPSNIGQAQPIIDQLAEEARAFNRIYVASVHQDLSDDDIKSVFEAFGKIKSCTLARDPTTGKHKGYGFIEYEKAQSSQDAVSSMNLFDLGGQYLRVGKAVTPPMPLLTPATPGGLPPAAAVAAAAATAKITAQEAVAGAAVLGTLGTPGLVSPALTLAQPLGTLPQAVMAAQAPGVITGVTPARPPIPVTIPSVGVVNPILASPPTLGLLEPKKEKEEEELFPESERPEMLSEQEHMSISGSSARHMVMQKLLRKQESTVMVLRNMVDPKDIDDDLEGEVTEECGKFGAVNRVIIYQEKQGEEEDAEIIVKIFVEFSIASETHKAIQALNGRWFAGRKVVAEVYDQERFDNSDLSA
UniProt Q15185: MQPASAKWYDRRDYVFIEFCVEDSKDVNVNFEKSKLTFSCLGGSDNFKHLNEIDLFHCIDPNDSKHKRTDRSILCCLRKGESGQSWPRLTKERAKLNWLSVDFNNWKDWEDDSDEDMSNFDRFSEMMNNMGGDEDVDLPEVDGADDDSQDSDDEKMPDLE
UniProt Q8N8N7: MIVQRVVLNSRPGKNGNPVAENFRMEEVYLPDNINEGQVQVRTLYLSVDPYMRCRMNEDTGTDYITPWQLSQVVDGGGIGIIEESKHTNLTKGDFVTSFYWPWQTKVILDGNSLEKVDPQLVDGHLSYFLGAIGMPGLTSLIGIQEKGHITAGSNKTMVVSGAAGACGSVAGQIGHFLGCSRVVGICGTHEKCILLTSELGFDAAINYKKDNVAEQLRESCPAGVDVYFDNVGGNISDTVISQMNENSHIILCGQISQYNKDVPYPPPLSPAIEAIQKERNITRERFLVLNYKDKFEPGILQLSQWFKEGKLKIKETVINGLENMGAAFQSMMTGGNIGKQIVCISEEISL
UniProt P15151: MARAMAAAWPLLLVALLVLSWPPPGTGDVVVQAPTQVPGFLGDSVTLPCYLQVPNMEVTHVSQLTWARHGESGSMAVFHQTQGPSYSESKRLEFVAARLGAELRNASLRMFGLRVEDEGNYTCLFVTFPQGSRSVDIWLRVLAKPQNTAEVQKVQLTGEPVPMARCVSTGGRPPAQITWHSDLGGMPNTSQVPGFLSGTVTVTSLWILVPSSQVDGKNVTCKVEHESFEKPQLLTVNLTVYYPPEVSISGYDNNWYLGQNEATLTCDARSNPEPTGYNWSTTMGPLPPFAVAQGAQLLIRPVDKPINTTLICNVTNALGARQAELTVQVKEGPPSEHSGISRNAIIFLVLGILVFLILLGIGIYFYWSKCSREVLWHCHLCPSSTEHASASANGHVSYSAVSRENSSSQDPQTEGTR
UniProt Q12974: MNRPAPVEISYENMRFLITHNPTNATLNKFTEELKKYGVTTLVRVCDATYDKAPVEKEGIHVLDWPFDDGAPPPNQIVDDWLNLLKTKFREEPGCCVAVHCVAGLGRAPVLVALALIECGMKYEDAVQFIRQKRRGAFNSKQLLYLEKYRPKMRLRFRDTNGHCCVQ

[2] = compound: CC1=C(SC2=C1C(=N[C@H](C3=NN=C(N32)C)CC(=O)N)C4=CC=C(C=C4)Cl)C
Summary of the method: as §1

[3] = compound: CC1=C2C(=CC=C1)N=C(N(C2=O)C3=CC=CC=C3C)CN4C=NC5=C(N=CN=C54)N
Summary of the method: as §1

[4] = compound: Cc1sc2c(c1C)C(c1ccc(Cl)cc1)=N[C@@H](CC(=O)OC(C)(C)C)c1nnc(C)n1-2
Summary of the method: as §1

[5] = compound: c1ccc([C@@H]2C[C@H]2NC2CCNCC2)cc1
Summary of the method: as §1

Measured: log2 fold change

PSEN1 (UniProt P49768)
inactive: [1] 0.076 | [2] -0.043 | [3] 0.041 | [4] -0.026 | [5] 0.055

PTPRS isoform 3 (UniProt Q13332)
inactive: [1] 0.022 | [2] 0.027 | [3] 0.08 | [4] -0.069 | [5] 0.072

PTPRA (UniProt P18433)
inactive: [1] 0.012 | [2] 0.071 | [3] 0.032 | [4] 0.003 | [5] 0.046

PTDSS2 (UniProt Q9BVG9)
inactive: [1] 0.012 | [2] 0.05 | [3] 0.017 | [4] 0.026 | [5] -0.089

PUF60 (UniProt Q9UHX1)
inactive: [1] -0.017 | [2] 0.006 | [3] 0.004 | [4] 0.028 | [5] 0.059

PTGES3 isoform 4 (UniProt Q15185)
inactive: [1] 0.099 | [2] -0.042

PTGR2 (UniProt Q8N8N7)
inactive: [1] 0.009 | [2] 0.039 | [3] -0.003 | [4] -0.048 | [5] -0.004

PRUNE2 isoform 3 (UniProt Q8WUY3)
inactive: [1] 0.076 | [2] 0.031 | [3] -0.112 | [4] -0.063

PVR (UniProt P15151)
inactive: [1] 0.025 | [2] -0.001 | [3] 0.027 | [4] 0.007 | [5] -0.05

PTP4A2 (UniProt Q12974)
inactive: [1] 0.041 | [2] -0.039 | [3] 0.015 | [4] 0.113 | [5] -0.407

From the supplement of paper PMC10849652
